What was measured:
[1] = Bronzing of printed samples; details: in words
Description: (§1) The present invention, as far as it relates to inks, is further illustrated by the following examples using dyes according to our invention described in Tables 1 and 2 and dyes representing the state of the art described in Tables 3 and 4. 100 g of each ink were prepared by heating the necessary amount of dye (3-7 g), glycerol (5 g), tetraethylenglycol (1.1 g). and a biocide solution (Promexal X50, available from Zeneca, Manchester, England) (1.2 g) together with water at a temperature of 50° C. under stirring for one hour. The resulting solution was cooled down to 20° C., pH was adjusted to 7.5 and passed through a Millipore® filter of 0.5 μm pore diameter. The dye quantity was adjusted in a way that the density of the printed images was the same for all dyes.
(§2) 30 g of gelatin with a high isoelectric point (type St 70,810, available from Deutsche Gelatinefabriken, Eberbach, Germany) were dissolved in 360 ml of deionised water. 1 g of a surfactant (Olin 10G, available from Olin Corporation, Norwalk, USA) were added to this solution. Immediately before coating 6.6 g of a solution of 2-(4-dimethyl-carbamoyl-pyridino)-ethanesulfonate (3%) were added and pH was adjusted to 6.5. 100 g/m^2 of this solution was then coated onto a resin coated paper support using a bar coater. The recording medium prepared in this way was dried for 12 hours.
(§3) The inks were then jetted onto this recording medium with an HP560 ink jet printer from Hewlett-Packard. The properties of the printed samples were evaluated later on.

[2] = Smudge resistance of printed samples; parameters: key: ⊕: No or little smear; .diamond.: Slight smear; .phi.: Severe smear; details: rubbing with slightly wet finger; for Smudge resistance: Table 6
Description: as §1, §2, §3
The smudge behavior of printed samples was determined by rubbing a dye patch of high density with a slightly wet finger. The smudge resistance is indicated in the following way:
⊕: No or little smear

SMILES | bronzing [1] | Smudge resistance [2] | Smudge behavior ([2]; state of the art dyes, Table 7)
O=S(=O)(O)CCNc1ccc2cc(S(=O)(=O)O)c(N=Nc3ccc(N=Nc4cc(Cl)c(S(=O)(=O)O)cc4Cl)c4ccc(S(=O)(=O)O)cc34)c(O)c2c1 [Compound 18] | do not show bronzing | ⊕ | –
O=S(=O)(O)CCNc1ccc2cc(S(=O)(=O)O)c(N=Nc3ccc(N=Nc4cccc(CO)c4)c4ccc(S(=O)(=O)O)cc34)c(O)c2c1 [Compound 1] | – | .diamond. | –
O=S(=O)(O)CCNc1ccc2cc(S(=O)(=O)O)c(N=Nc3ccc(N=Nc4ccc(S(=O)(=O)O)cc4)c4ccc(S(=O)(=O)O)cc34)c(O)c2c1 [Compound 3] | – | .diamond. | –
O=S(=O)(O)CCNc1ccc2cc(S(=O)(=O)O)c(N=Nc3ccc(N=Nc4ccc(CS(=O)(=O)O)cc4)c4cc(S(=O)(=O)O)ccc34)c(O)c2c1 [Compound 9] | – | ⊕ | –
O=S(=O)(O)CCNc1ccc2cc(S(=O)(=O)O)c(N=Nc3ccc(N=Nc4cc(S(=O)(=O)O)c5cccc(S(=O)(=O)O)c5c4)c4ccc(S(=O)(=O)O)cc34)c(O)c2c1 [Compound 19] | – | ⊕ | –
O=C(O)Cc1ccc(N=Nc2ccc(N=Nc3c(S(=O)(=O)O)cc4ccc(NCCS(=O)(=O)O)cc4c3O)c3cc(S(=O)(=O)O)ccc23)cc1 [Compound 7] | do not show bronzing | ⊕ | –
O=S(=O)(O)CCNc1ccc2cc(S(=O)(=O)O)c(N=Nc3ccc(N=Nc4cccc(S(=O)(=O)O)c4)c4cc(S(=O)(=O)O)ccc34)c(O)c2c1 [Compound 6] | – | ⊕ | –
O=S(=O)(O)CCNc1ccc2cc(S(=O)(=O)O)c(N=Nc3ccc(N=Nc4ccc(CCO)cc4)c4ccc(S(=O)(=O)O)cc34)c(O)c2c1 [Compound 11] | – | ⊕ | –
O=C(O)CCc1ccc(N=Nc2ccc(N=Nc3c(S(=O)(=O)O)cc4ccc(NCCS(=O)(=O)O)cc4c3O)c3cc(S(=O)(=O)O)ccc23)cc1 [Compound 12] | do not show bronzing | ⊕ | –
O=S(=O)(O)CCNc1ccc2cc(S(=O)(=O)O)c(N=Nc3ccc(N=Nc4ccc(S(=O)(=O)O)cc4)c4cc(S(=O)(=O)O)ccc34)c(O)c2c1 [Compound 4] | – | ⊕ | –
O=C(O)CCC(NC(=O)c1ccc(N=Nc2ccc(N=Nc3c(S(=O)(=O)O)cc4ccc(NCCS(=O)(=O)O)cc4c3O)c3cc(S(=O)(=O)O)ccc23)cc1)C(=O)O (stereo not drawn) [Compound 14] | – | .diamond. | –
O=C(O)c1cccc(N=Nc2ccc(N=Nc3c(S(=O)(=O)O)cc4ccc(NCCS(=O)(=O)O)cc4c3O)c3cc(S(=O)(=O)O)ccc23)c1 [Compound 2] | – | .diamond. | –
O=S(=O)(O)CCNc1ccc2cc(S(=O)(=O)O)c(N=Nc3ccc(N=Nc4ccc5c(S(=O)(=O)O)cc(S(=O)(=O)O)cc5c4)c4ccc(S(=O)(=O)O)cc34)c(O)c2c1 [Compound 20] | do not show bronzing | ⊕ | –
O=S(=O)(O)CCNc1ccc2cc(S(=O)(=O)O)c(N=Nc3ccc(N=Nc4ccc(CS(=O)(=O)O)cc4)c4ccc(S(=O)(=O)O)cc34)c(O)c2c1 [Compound 8] | do not show bronzing | ⊕ | –
O=C(O)c1ccc(N=Nc2ccc(N=Nc3c(S(=O)(=O)O)cc4ccc(NCCS(=O)(=O)O)cc4c3O)c3cc(S(=O)(=O)O)ccc23)cc1Cl [Compound 15] | do not show bronzing | ⊕ | –
Nc1ccc2cc(S(=O)(=O)O)c(N=Nc3ccc(N=Nc4cc(C(=O)O)cc(C(=O)O)c4)c4ccc(S(=O)(=O)O)cc34)c(O)c2c1 [Compound 24, reference compound] | – | – | ⊕
O=S(=O)(O)CCNc1ccc2cc(S(=O)(=O)O)c(N=Nc3ccc(N=Nc4ccc(S(=O)(=O)O)cc4)c4ccc(S(=O)(=O)O)cc34)c(O)c2c1 [Compound 5] | do not show bronzing | ⊕ | –
